{
  "source": "patent US11358989B2",
  "about": "“Apratyramide therapeutic agents and methods of treatment” (University of Florida Research Foundation, Incorporated, priority 2017, dated 2022)",
  "tested_on": "HaCaT cells",
  "test": "Transcriptome profiling of HaCaT cells (Human Transcriptome Array 2.0, IPA)",
  "format": "cell-based",
  "settings": "30 μM, 12 h",
  "method": "HaCaT cells were seeded in 6-well plates at a density of 2×10^5 per well and incubated further for 24 h in supplement-free medium prior to treatment. RNA was isolated at 3, 12 or 16 h post treatment using the RNeasy mini kit (QIAGEN, Valencia, Calif.). Total RNA was quantified using NanoDrop 2000. From 2 μg of total RNA, cDNA synthesis was done using SuperScript II Reverse Transcriptase (Invitrogen, Carlsbad, Calif.) and oligo (dT) (Invitrogen).\nRNA was analyzed using a NanoDrop spectrophotometer and Agilent 2100 Bioanalyzer to determine the RNA concentration and quality, respectively. RNA samples were processed using the GeneChip WT PLUS Reagent Kit (Affymetrix, Santa Clara, Calif.) according to the manufacturer's instruction. In brief, 250 ng of RNA were used for cDNA synthesis by reverse transcription, and the cDNA was utilized as a template for the biotin-labeled RNA prepared by in vitro transcription reaction. The labeled RNA was further purified, fragmented, and hybridized with rotation at 45° C. for 16 h to the GeneChip™ Human Transcriptome Array 2.0. The arrays were washed and stained using the GeneChip Hybridization Wash and Stain kit on an Affymetrix Fluidics Station 450. The chips were scanned using a GeneChip 7G Scanner. […]",
  "data": [
    {"smiles": "CC[C@H](C)[C@@H](OC(=O)[C@H](Cc1ccc(OC)cc1)N(C)C)C(=O)N[C@H](C(=O)N(C)[C@@H](Cc1ccc(O)cc1)C(=O)N(C)[C@@H](Cc1ccc(O)cc1)C(=O)OC)C(C)C", "note": "[Compound 1, Apratyramide]", "values": [
      {"measurement": "number of differentially expressed genes", "setting": "P<0.05 FDR corrected, fold change >1.5 or <0.67", "value": 371},
      {"measurement": "top canonical pathway by IPA analysis", "setting": "p-value 1.45×10^−16", "value": "unfolded protein response (UPR)"}
    ]}
  ]
}
